Laboratory results reported in doi:10.1101/2025.04.23.650309.
Where a chain is given by its changes, count along the chain named. In names and notes the source's numbering stands. These are yes or no findings as the source states them, for the method shown. Binding seen in cells or lysates may run through a third protein. Some results given as binding are weak or reduced against the parent protein; the word gives no strength. Sequences can lack the tags named with a protein.

By UniProt entry, the sequences of proteins in these tests, tags left out. Where a name states a change or a piece, a line headed by the entry shows the natural chain unless it says otherwise.
UniProt O00308, whole entry: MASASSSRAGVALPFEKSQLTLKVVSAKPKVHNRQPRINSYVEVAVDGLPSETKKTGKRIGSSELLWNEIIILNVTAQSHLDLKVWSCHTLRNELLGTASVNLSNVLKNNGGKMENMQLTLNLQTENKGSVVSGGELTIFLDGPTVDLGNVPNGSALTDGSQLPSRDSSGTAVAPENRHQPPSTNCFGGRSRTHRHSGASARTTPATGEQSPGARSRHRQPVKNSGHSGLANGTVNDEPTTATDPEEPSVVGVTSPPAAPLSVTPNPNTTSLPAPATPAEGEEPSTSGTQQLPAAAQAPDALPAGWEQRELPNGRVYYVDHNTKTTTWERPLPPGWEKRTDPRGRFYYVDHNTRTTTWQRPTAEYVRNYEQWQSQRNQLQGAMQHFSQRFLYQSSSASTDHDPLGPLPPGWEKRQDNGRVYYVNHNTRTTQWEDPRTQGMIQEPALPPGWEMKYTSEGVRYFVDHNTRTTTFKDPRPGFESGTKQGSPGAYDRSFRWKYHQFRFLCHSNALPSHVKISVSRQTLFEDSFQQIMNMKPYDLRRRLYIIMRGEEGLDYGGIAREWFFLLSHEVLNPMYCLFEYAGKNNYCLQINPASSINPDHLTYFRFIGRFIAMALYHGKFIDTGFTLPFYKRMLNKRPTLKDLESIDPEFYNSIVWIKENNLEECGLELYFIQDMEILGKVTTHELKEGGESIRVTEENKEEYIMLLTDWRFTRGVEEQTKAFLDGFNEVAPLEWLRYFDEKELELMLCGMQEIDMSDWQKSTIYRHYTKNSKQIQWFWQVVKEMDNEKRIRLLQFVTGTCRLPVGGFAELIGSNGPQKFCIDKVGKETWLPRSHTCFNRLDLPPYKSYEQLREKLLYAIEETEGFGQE

B1: FLAG-NDFIP2 (WT) (protein, UniProt Q9NV92 1-336)
chain: MARRRSQRVCASGPSMLNSARGAPELLRGTATNAEVSAAAAGATGSEELPPGDRGCRNGGGRGPAATTSSTGVAVGAEHGEDSLSRKPDPEPGRMDHHQPGTGRYQVLLNEEDNSESSAIEQPPTSNPAPQIVQAASSAPALETDSSPPPYSSITVEVPTTSDTEVYGEFYPVPPPYSVATSLPTYDEAEKAKAAAMAAAAAETSQRIQEEECPPRDDFSDADQLRVGNDGIFMLAFFMAFIFNWLGFCLSFCITNTIAGRYGAICGFGLSLIKWILIVRFSDYFTGYFNGQYWLWWIFLVLGLLLFFRGFVNYLKVRNMSESMAAAHRTRYFFLL
B2: FLAG-NDFIP2^Y151A (protein, UniProt Q9NV92 1-336)
chain: B1 chain with Y151A
B3: FLAG-NDFIP2^Y177A (protein, UniProt Q9NV92 1-336)
chain: B1 chain with Y177A
B4: FLAG-NDFIP2^Y186A (protein, UniProt Q9NV92 1-336)
chain: B1 chain with Y186A
B5: FLAG-NDFIP2^Y151A;Y177A (protein, UniProt Q9NV92 1-336)
chain: B1 chain with Y151A, Y177A

Target: HA-WWP2 (full length) (UniProt O00308)
Assay: co-IP

Binder	binding
B1	binds
B2	binds
B3	binds
B4	binds
B5	binds
